Measurements published in the supplement of paper PMC12282887.

Tested on: Escherichia coli BW25113
Assay: growth (OD600 area under curve, 8 h) (OD600 x h); higher = more growth
Description: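 E. coli BW25113 reporter strains (wild type, ΔmarA, ΔsoxS, Δrob, each carrying one of 8 lux reporter plasmids) were grown in 40 µl LB in 384-well plates at 37°C, 800 rpm, with each compound at 4 two-fold concentrations, in biological duplicates. Growth is the baseline-corrected OD600 area under the curve over 8 h (0-8 h WT, 1-9 h deletion strains).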

NC(=O)c1cc[n+](CC2=C(C(=O)[O-])N3C(=O)[C@@H](NC(=O)[C@@H](c4ccccc4)S(=O)(=O)O)[C@H]3SC2)cc1 [Cefsulodin]
growth
Settings | reporter plasmid: EVC | reporter plasmid: acrABp | reporter plasmid: marRABp | reporter plasmid: micFp | reporter plasmid: ompFp | reporter plasmid: robp | reporter plasmid: soxSp | reporter plasmid: tolCp
1.7 µg/ml, genetic background: wild type | 3.29 ± 0.11 | 3.12 ± 0.18 | 3.31 ± 0.22 | 3 ± 0.24 | 3.17 ± 0.11 | 3.32 ± 0.15 | 3.06 ± 0.095 | 3.14 ± 0.046
1.7 µg/ml, genetic background: ΔmarA | 2.93 ± 0.036 | 3.76 ± 0.066 | 3.45 ± 0.15 | 3.37 ± 0.66 | 3.3 ± 0.97 | 3.82 ± 0.64 | 2.97 ± 0.097 | 3.076 ± 0.03
1.7 µg/ml, genetic background: Δrob | 3.097 ± 0.0031 | 3.26 ± 0.072 | 3.37 ± 0.12 | 2.93 ± 0.35 | 2.84 ± 0.5 | 2.97 ± 0.036 | 2.74 ± 0.35 | 3.17 ± 0.1
1.7 µg/ml, genetic background: ΔsoxS | 3.28 ± 0.43 | 3.4 ± 0.46 | 3.36 ± 0.63 | 3.11 ± 0.043 | 3.3 ± 0.32 | 3.39 ± 0.4 | 3.23 ± 0.18 | 3.2 ± 0.21
3.5 µg/ml, genetic background: wild type | 2.99 ± 0.033 | 3.21 ± 0.39 | 3.35 ± 0.17 | 2.83 ± 0.28 | 3.0482 ± 0.0015 | 3.331 ± 0.023 | 3.002 ± 0.017 | 3.084 ± 0.029
3.5 µg/ml, genetic background: ΔmarA | 2.83 ± 0.054 | 3.77 ± 0.044 | 3.42 ± 0.16 | 3.27 ± 0.61 | 3.22 ± 1.2 | 3.87 ± 0.47 | 2.832 ± 0.026 | 3.08 ± 0.23
3.5 µg/ml, genetic background: Δrob | 2.96 ± 0.22 | 2.96 ± 0.22 | 3.3 ± 0.35 | 2.772 ± 0.021 | 2.61 ± 0.43 | 2.77 ± 0.36 | 2.46 ± 0.41 | 3.01 ± 0.069
3.5 µg/ml, genetic background: ΔsoxS | 3.11 ± 0.43 | 3.22 ± 0.26 | 3.04 ± 0.6 | 3.01 ± 0.12 | 3.15 ± 0.19 | 3.17 ± 0.26 | 3.09 ± 0.17 | 3.09 ± 0.15
6.9 µg/ml, genetic background: wild type | 3.14 ± 0.059 | 3.33 ± 0.29 | 3.37 ± 0.17 | 2.84 ± 0.29 | 3.247 ± 0.019 | 3.366 ± 0.016 | 2.74 ± 0.2 | 2.84 ± 0.19
6.9 µg/ml, genetic background: ΔmarA | 2.87 ± 0.23 | 3.67 ± 0.096 | 3.32 ± 0.21 | 3.34 ± 0.69 | 3.41 ± 0.85 | 3.87 ± 0.8 | 2.73 ± 0.27 | 2.99 ± 0.067
6.9 µg/ml, genetic background: Δrob | 3.04 ± 0.36 | 3.37 ± 0.04 | 3.39 ± 0.15 | 2.8 ± 0.31 | 2.89 ± 0.4 | 2.98 ± 0.084 | 2.54 ± 0.39 | 2.9 ± 0.28
6.9 µg/ml, genetic background: ΔsoxS | 3.04 ± 0.54 | 3.48 ± 0.57 | 3.36 ± 0.75 | 2.97 ± 0.075 | 3.49 ± 0.24 | 3.39 ± 0.23 | 2.94 ± 0.71 | 2.9 ± 0.18
13.9 µg/ml, genetic background: wild type | 2.68 ± 0.21 | 2.05 ± 0.26 | 2.04 ± 0.72 | 2.18 ± 0.035 | 1.15 ± 0.017 | 1.99 ± 0.096 | 2.22 ± 0.077 | 2.747 ± 0.0063
13.9 µg/ml, genetic background: ΔmarA | 2.63 ± 0.24 | 2.35 ± 0.25 | 2.14 ± 0.051 | 2.62 ± 0.63 | 1.21 ± 0.42 | 2.73 ± 1.5 | 2.09 ± 0.088 | 2.44 ± 0.45
13.9 µg/ml, genetic background: Δrob | 2.751 ± 0.027 | 1.97 ± 0.071 | 2.44 ± 0.4 | 2.302 ± 0.017 | 1.68 ± 0.47 | 1.07 ± 0.15 | 2.03 ± 0.17 | 2.789 ± 0.003
13.9 µg/ml, genetic background: ΔsoxS | 2.8 ± 0.19 | 2.32 ± 0.18 | 2.38 ± 0.65 | 2.46 ± 0.075 | 0.674 ± 0.17 | 1.69 ± 0.78 | 2.42 ± 0.039 | 2.859 ± 0.021

± gives the standard deviation of the averaged measurements. Values are raw readings; no control value is given beside them.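 Maximum concentrations were near the MIC for antimicrobials, 500 µM for most other compounds, and as high as 1 mM for known inducer-like compounds. Deletion strains began with a tenfold smaller inoculum, and wells with growth under 10% of the overall median counted as non-growing.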
